Results published in patent publication US20250255981A1, “IMMUNOMODULATORY ANTIBODY-DRUG CONJUGATES” (Seagen Inc., priority 2022, published 2025).
≈ marks a conversion by molar mass, not a printed value. For at least one compound, name, drawing or mass did not settle the structure.

Tested on: THP1-Dual™ cells (IRF-Lucia luciferase reporter)
Assay: THP1-Dual™ cell reporter assay
Format: cell-based, human
Settings: 48 h
Description: Potency of compounds and ADCs was evaluated using the THP1-Dual™ cells (Invivogen PN: thpd-nfis [also referred to as THP1 dual reporter cells]), which contain an IRF-Lucia luciferase reporter. Cells were cultured in RPMI-1640 (Gibco) with 10% heat-inactivated fetal bovine serum, Pen-Strep (100 U/mL-100 […], Gibco), HEPES (10 mM, Gibco)), sodium pyruvate (1 mM, Gibco), MEM non-essential amino acids (1×, Gibco), GlutaMAX (1×, Gibco), and beta-mercaptoethanol (55 μM, Gibco). Cells were plated in a 96-well flat bottom tissue culture-treated clear polystyrene plate (Corning Costar #3596) at ˜100,000 cells per well in 200 μL with the indicated concentration of the compound or ADC. The supernatant was harvested at 24 hours (compounds) or 48 hours (ADC) post plating for the reporter assay, or as indicated. To measure Lucia reporter signal, 10 µL of the supernatant was combined with 40 µL of QUANTI-Luc™ Luminescence assay reagent (Invivogen PN: rep-qlc1) in a 96-well clear flat bottom tissue culture-treated black polystyrene plate (Corning Costar #3603) and read on a Perkin Elmer Envision plate reader.

For `CCn1nc(C)cc1C(=O)Nc1nc2cc(C(N)=O)cc(OC)c2n1C/C=C/Cn1c(NC(=O)c2cc(C)nn2CC)nc2cc(C(N)=O)cc(OCCCN(C)C(=O)CCN3C(=O)C=CC3=O)c21` [compound 12, (E)-1-(4-(5-carbamoyl-2-(1-ethyl-3-methyl-1H-pyrazole-5-carboxamido)-7-methoxy-1H-benzo[d]imidazol-1-yl)but-2-en-1-yl)-7-(3-(3-(2,5-dioxo-2,5-dihydro-1H-pyrrol-1-yl)-N-methylpropanamido)propoxy)-2-(1-ethyl-3-methyl-1H-pyrazole-5-carboxamido)-1H-benzo[d]imidazole-5-carboxamide], the “EC50, Lucia reporter signal” value (ADC: drug linker conjugated to targeted mAb, some values average of multiple experiments) was 4.2 ng/mL (≈ 4.44 nM) and the “relative potency / activity of ADC, Lucia reporter” value (drug linker conjugated to targeted mAb) was “more potent when conjugated to a targeted mAb via a non-cleavable linker (12) than either cleavable linker 13 or 14”.
